Among the data in PMC10916992, “APOE Christchurch‐mimetic therapeutic antibody reduces APOE‐mediated toxicity and tau phosphorylation” (Alzheimer's & Dementia, 2023) are binding values, retold here.

Results are given in words; binding and its absence hold for the method and conditions named. Some entries that bind do so weakly or less than the wild type.

For this experiment, the target named is Recombinant VLDLr (UniProt P98155). In words: ELISA; 1 μg/mL recombinant VLDLr coated; serial dilutions of ApoE3 (Acros) alone or with 0.003 μg/μL 7C11 mAb in TBS with 2 mM CaCl2, 2 h RT; detected by anti-His-tag antibody; both purified. (In general: In an ELISA, binding on a coated surface is turned into a signal by an enzyme label.)

“Mammalian-derived (HEK derived) ApoE3, ACROBiosystems (from UniProt P02649 19-317)”: the binding entry is on record as “binds”.
